Data as given in PubChem BioAssay AID686943 (Drosophila RNAi Screening Center, 2013)

- Aim: 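Fly genes whose loss alters ERK activation after insulin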 (primary screen)
- System: Drosophila S2R+ haemocyte-like cells expressing YFP-tagged ERK (Rolled)
- Reagents: long dsRNA against Drosophila genes
- Challenge: insulin stimulation versus unstimulated cells; dose and duration not given
- Measured: 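Antibody staining for doubly phosphorylated ERK divided by ERK-YFP signal, as plate z-scores, in insulin-treated and untreated cells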
- Scale: replicate 1, z-score of dpERK with insulin: higher = more active ERK per ERK-YFP after insulin
The screen tested about 23,000 reagents; this is a random part of those with a known target gene and a result. 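Extra replicates exist only for a retested subset of genes; insulin dose and duration not given; both raised and lowered dpERK matter.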 The numbers tell different reagents against one gene apart. A plus sign joins genes that one reagent is predicted to hit. Further read-outs or replicates are left out here. Not given: the amount of reagent, the time to read-out.

| Gene | reagent no. | replicate 1, z-score of dpERK with insulin |
| --- | --- | --- |
| ect | 1 | 1.8 |
| ect | 2 | 1.23 |
| ect | 3 | 0.01 |
| CG5196 | 1 | 0.24 |
| Shc | 1 | -1.5 |
| Gr63a | 1 | 1.07 |
| Sfxn1-3 | 1 | -0.96 |
| ND-B16.6 | 1 | 0.49 |
| ND-B16.6 | 2 | 0.72 |
| CG14265 | 1 | -0.18 |
| Afti | 1 | -0.55 |
| ord | 1 | -0.03 |
| Pex13 | 1 | 0.16 |
| CG31875 | 1 | -0.7 |
| Lcp65Aa | 1 | 0.03 |
| phr6-4 | 1 | 0.82 |
| CG15635 | 1 | 0.54 |
| CG15635 | 2 | 1.09 |
| CG14011 | 1 | -0.54 |
| cyr | 1 | 0.28 |
| cyr | 2 | 0.1 |
| cyr | 3 | -0.23 |
| tex | 1 | -0.78 |
| Ih | 1 | -0.4 |
| Ih | 2 | -0.06 |
| Ih | 3 | -2.79 |
| Pgm2b | 1 | 0.56 |
| bor | 1 | 0.17 |
| Ugt37D1 | 1 | 0.25 |
| melt | 1 | 0.72 |
| lncRNA:CR33218 | 1 | -0.86 |
| CG5334 | 1 | 0.2 |
| CG13008 | 1 | -0.06 |
| CG13008 | 2 | 0.03 |
| Gale | 1 | -0.07 |
| CG13625 | 1 | 0.39 |
| Or49b | 1 | 0.05 |
| COX6AL2 + Ir75d | 1 | -0.18 |
| CG13800 (retired record) | 1 | 1.24 |

Ordered by “replicate 1, z-score of dpERK with insulin” (low to high): 4 of the entries above
| Gene | reagent no. | replicate 1, z-score of dpERK with insulin |
| --- | --- | --- |
| CG14011 | 1 | -0.54 |
| cyr | 1 | 0.28 |
| CG15635 | 1 | 0.54 |
| CG15635 | 2 | 1.09 |
